Assay results taken from the supplement of paper PMC12578635.
Some of the results follow. No stated cut-off is given here; in the data, active = 150% or more and inactive = the rest. Single values are uncertain, as repeats are few or missing.

These compounds were tested on Staphylococcus aureus JE2-lux inside RAW 264.7 macrophages (assay: intracellular bacterial bioluminescence relative to DMSO vehicle; higher = higher intracellular bacterial metabolic activity). Settings: 10 µM; treatment time 4 h; gentamicin 50 µg/ml.

Intracellular bacterial bioluminescence, active:
Cc1ccccc1C(=O)NCCNc1nc2c(c(=O)n(C)c(=O)n2C)n1Cc1ccccc1 179%
O=C(CSc1nnc2ccc(-c3ccncc3)nn12)NCc1ccc(F)cc1 151%

Intracellular bacterial bioluminescence, inactive:
O=c1c2ccccc2nc2c3ccccc3c(NCCCO)nn12 112%
O=C(CC1(O)C(=O)Nc2ccc(Br)cc21)c1ccccn1 (stereo unspecified) 104%
Cc1ccc(NC(=O)N(Cc2ccco2)Cc2cc3cccc(C)c3nc2Cl)cc1 95.7%
Cc1cccn2cc(-c3ccc(NC(=O)c4ccco4)cc3)nc12 82%
O=C(NCc1cccnc1)C(=O)NCC1OCCN1C(=O)c1ccc(Cl)cc1 (stereo unspecified) 85.4%
O=c1[nH]c2c(s1)C(c1ccc(O)cc1)C1C3CCC(C3)C1S2 (stereo unspecified) 134%
Cn1c(=O)n(C)c2cc(NC(=O)c3ncoc3-c3ccc(F)cc3)ccc21 98.5%
Nc1c(C(=O)Nc2ccc(F)cc2)sc2nc3cc4c(cc3cc12)OCO4 110%
O=C(Cn1c2ccccc2n2c(=O)cc(-c3ccccc3)nc12)Nc1ccccc1C(F)(F)F 103%
Cc1nn2c(C(F)(F)F)cc(-c3ccccn3)nc2c1-c1ccccc1 74.7%
CCOc1ccccc1NC(=O)c1cnc2sccn2c1=O 116%
COc1ccc(CCN2CCCn3c2nc2c3c(=O)[nH]c(=O)n2C)cc1OC 82.2%
O=C(O)c1ccc(CN2C(=O)CSC2=O)cc1 115%
O=c1/c(=C/c2cccc([N+](=O)[O-])c2)sc2nc(-c3ccncc3)nn12 52.6%
COc1ccc2nc(CN3CCC(NC(C)=O)(c4ccccc4F)CC3)ccc2c1 89.7%
COc1ccc(NC(=S)NCCNc2nc3cc4c(cc3cc2C#N)OCO4)c(OC)c1 100%
COc1ccc(C)cc1NC(=O)CCN1C(=O)c2ccccc2S1(=O)=O 57.9%
O=C(CSc1c(-c2ccccc2)[nH]c2ccccc12)NCc1ccco1 101%
Cn1c(=O)c(Nc2ccc(O)cc2)c2c3c(cccc31)C(=O)c1ccccc1-2 61.7%
Cc1ccc(Cc2nn3c(SCC(=O)c4ccc(C)cc4)nnc3[nH]c2=O)cc1 92.6%
O=C1Nc2ccccc2/C1=C1/SC(=S)N(Nc2ccccc2)C1=O 83.2%
CC(=O)Nc1ccc(S(=O)(=O)Nc2cncc(C(=O)NC3CCCC3)c2)cc1 115%
Cc1cccc(NC(=O)C2CCN(C(=O)NCc3ccccc3)CC2)c1C 66.3%
CCOC(=O)c1c(-c2ccccc2)csc1NC1SC(=O)N(c2ccccc2)C1=O (stereo unspecified) 101%
CCOC(=O)c1c(C)oc2c1/C(=C/NCCO)C(=O)c1ccccc1-2 112%
CCc1ccc(N2C(=O)NC3CC2(C)Oc2ccccc23)cc1 (stereo unspecified) 20.9%
Cc1ccc(-c2nc3scc(CCNS(=O)(=O)c4ccc5c(c4)OCCO5)n3n2)cc1 107%
Cc1ccc2nc(-c3ccc(F)cc3)nc(SCC(=O)NCC3CCCO3)c2c1 (stereo unspecified) 88.3%
Cn1cc(NC(=O)c2ccc(C(F)(F)F)nc2N2CCN(CCO)CC2)cn1 89.3%
CCOC(=O)c1cc([N+](=O)[O-])sc1NC(=O)CC 92.9%
COc1ccc(S(=O)(=O)CCC(=O)Nc2nc3c(s2)COc2ccccc2-3)cc1 63.8%
Cc1cc2cc3c(cc2nc1SCC(=O)Nc1ccc2c(c1)OCO2)CCC3 113%
Cc1ccc2cc3cc(C(=O)OC(C(=O)NCC4CCCO4)c4ccccc4F)sc3nc2c1 (stereo unspecified) 77.2%
NC(=O)c1ccsc1NC(=O)c1ccc2c(c1)OCCO2 111%
CCCCOc1ccc(/C=C(\C#N)c2nc3ccccc3[nH]2)cc1OC 101%
COC(=O)c1ccccc1NC(=O)c1cnc(C)nc1C 104%
O=C(O)c1cccnc1Nc1cccc([N+](=O)[O-])c1 97.2%
Cc1csc(-c2csc(S(=O)(=O)N3CC=C(c4ccccc4)CC3)c2)n1 95.4%
CCSc1ccccc1C(=O)Nc1sc2c(c1C(N)=O)CCC(C)C2 (stereo unspecified) 93.4%
COC(=O)c1ccc2nc(NC(=O)/C=C/c3cccs3)sc2c1 116%
Cn1nc(C(=O)NCc2ccc(F)cc2)c2c1CCN(C(=O)c1cc(-c3cccs3)on1)C2 95.4%
O=C(NCC1CCCN1S(=O)(=O)c1cccs1)c1ccc([N+](=O)[O-])cc1 (stereo unspecified) 111%
COc1ccccc1C(=O)Nc1cc(C(=O)N(C)C)cnc1N1CCNCC1 104%
O=C(NCc1ccc2c(c1)OCO2)c1ccc(-c2ccc(N3CCOCC3)nn2)cc1 104%

Arranged by formula weight (ascending): part of the list above.
Intracellular bacterial bioluminescence, inactive:
O=C(O)c1ccc(CN2C(=O)CSC2=O)cc1 115%
CCOc1ccccc1NC(=O)c1cnc2sccn2c1=O 116%
O=C(CSc1c(-c2ccccc2)[nH]c2ccccc12)NCc1ccco1 101%
COc1ccc(C)cc1NC(=O)CCN1C(=O)c2ccccc2S1(=O)=O 57.9%
COc1ccc(CCN2CCCn3c2nc2c3c(=O)[nH]c(=O)n2C)cc1OC 82.2%
Cc1ccc2nc(-c3ccc(F)cc3)nc(SCC(=O)NCC3CCCO3)c2c1 (stereo unspecified) 88.3%
CCOC(=O)c1c(-c2ccccc2)csc1NC1SC(=O)N(c2ccccc2)C1=O (stereo unspecified) 101%
Cc1ccc2cc3cc(C(=O)OC(C(=O)NCC4CCCO4)c4ccccc4F)sc3nc2c1 (stereo unspecified) 77.2%
